According to the supplement of paper PMC3334620:
The full ranking holds about 33,000 sequences; the median of “E-score (-0.5 to 0.5)” is about -0.0014, and the highest 2% start at about 0.25. The list shows a part of the results.

Target: T1, Cad1 (UniProt P24813)
T1 sequence: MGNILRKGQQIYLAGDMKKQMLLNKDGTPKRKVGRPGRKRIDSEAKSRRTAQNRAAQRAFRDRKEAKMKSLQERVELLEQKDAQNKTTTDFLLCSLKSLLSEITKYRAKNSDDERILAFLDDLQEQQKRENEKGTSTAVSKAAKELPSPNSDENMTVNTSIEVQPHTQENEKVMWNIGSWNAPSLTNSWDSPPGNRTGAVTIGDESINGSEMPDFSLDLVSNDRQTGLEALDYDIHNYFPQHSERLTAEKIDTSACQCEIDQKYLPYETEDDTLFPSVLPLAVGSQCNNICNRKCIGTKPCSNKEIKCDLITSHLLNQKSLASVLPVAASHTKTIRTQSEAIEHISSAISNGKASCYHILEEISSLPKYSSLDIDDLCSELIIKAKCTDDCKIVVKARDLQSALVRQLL
Experiment: PBM E-score (8-mer binding enrichment) (E-score (-0.5 to 0.5)); higher = stronger / more preferred TF binding
Details: protein concentration: 100 nM; construct: GST-full length
Summary of the method: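 E-scores (a modified Wilcoxon-Mann-Whitney statistic) were assigned by the Universal PBM Analysis Suite to every ungapped eight-base word pooled with its reverse complement. The input came from universal all-10-mer Agilent arrays made double-stranded by primer extension and probed with GST-tagged yeast transcription factors at about 100-200 nM. Fluorescent anti-GST detected bound protein, and masliner normalised the scans.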

Row | Sequence | PBM E-score
1 | GCTCTTAA | 0.00175
2 | CCTGTGAA | -0.0104
3 | GTATGGAA | -0.144
4 | GATAGTCA | -0.0447
5 | AATAGCTA | 0.0621
6 | CCACCCAG | -0.0547
7 | AACTACAC | 0.123
8 | CCGCCAAA | 0.141
9 | TACACAAA | 0.229
10 | GGGCTCCA | -0.211
11 | CATATTCC | -0.178
12 | CAGGTACA | -0.0611
13 | ATCTATAA | 0.086
14 | AAAGCATA | -0.0199
15 | GAACCATC | 0.104
16 | CACGCGGA | 0.189
17 | CCCTGACG | -0.0383
18 | CCCGGGGC | -0.332
19 | ATGTACAC | 0.142
20 | AACTCAGT | -0.0318
21 | GCGGATAA | 0.0679
22 | GACCAAAA | 0.177
23 | CTATATCA | 0.181
24 | AAATTCGG | 0.227
25 | GGTGGACA | -0.111

Row | Sequence | PBM E-score
26 | ATAGAGTG | -0.0899
27 | CTTGATTA | 0.106
28 | ATGACCAG | 0.00697
29 | AGATGAAC | 0.177
30 | ACGTTCGA | -0.0227
31 | AAAATGTA | -0.138
32 | CTTTCATA | 0.046
33 | AAGCCTCC | -0.128
34 | GTGACAAC | 0.0552
35 | CTGTGTAA | 0.157
36 | TAGGGAAA | -0.014
37 | AATCATAT | 0.14
38 | CAGGATAC | -0.0938
39 | GAAAGACC | -0.175
40 | CGACTCTC | -0.183
41 | ACGGTTCG | 0.0536
42 | GCTAGAGA | 0.0132
43 | CCGGCGCC | 0.0915
44 | AAAATAGG | 0.0319
45 | GAGATGAA | -0.0368
46 | TATCGAGA | 0.0385
47 | AGAGCAGG | 0.0535
48 | GGTAGCCA | -0.0237
49 | CCCAGGGG | -0.389
50 | ACAAGACT | -0.0691

Row | Sequence | PBM E-score
51 | AAGTTGCG | 0.0178
52 | AATGTTGC | -0.0914
53 | ATAGCAAT | 0.154
54 | CGGGGTTA | -0.0249
55 | GGTTGCGA | 0.047
56 | AGATTGGC | -0.252
57 | AAGGCCGC | 0.0997
58 | CCCGCTCC | -0.37
59 | CAGGCACG | -0.0731
60 | GCGTTAGC | 0.0751
61 | CACTTTCC | 0.135
62 | ACCCGAAG | -0.0741
63 | TGTGTAAA | 0.156
64 | ACCGTAGT | -0.123
65 | ATCATAGG | -0.0111
66 | AACAATCA | 0.219
67 | ATGAATTC | 0.15
68 | AAACCCAA | -0.0676
69 | CAATCACA | 0.0376
70 | GTCTGGCA | -0.169
71 | AACTTAGG | 0.0392
72 | GACGTTAA | 0.245
73 | TCAACTAA | 0.0767
74 | ACGATAGG | -0.167
75 | AGAGTAAC | -0.086

Row | Sequence | PBM E-score
76 | CCATACAA | -0.131
77 | GTTCAGGA | -0.0605
78 | AAAAATCA | 0.124
79 | CCGAAAAA | 0.152
80 | TGTTCAAA | 0.0795
81 | AGGTGTCA | 0.127
82 | GGGTGCGA | -0.203
83 | CTTAGGAA | 0.136
84 | GAGACGAC | -0.0482
85 | CAAATTAC | -0.0627
86 | GTTGTGAA | 0.0868
87 | ACCAAGTA | 0.00548
88 | TCCTCTCA | -0.0627
89 | GATGGAAA | 0.00903
90 | ACGGGAAT | -0.153
91 | CTATTGTC | -0.145
92 | ATTTACTA | 0.113
93 | GTATATGA | 0.118
94 | ACGGCAGG | -0.265
95 | CTCTCCCA | -0.182
96 | GTTGGAGA | -0.0985
97 | CCGGATAA | 0.154
98 | GGGTTCAA | 0.0637
99 | ATTTTTCG | 0.135
100 | GATGGGGC | -0.122

Looked up above:
Value for CTATTGTC under PBM E-score: -0.145
Value for AACTCAGT under PBM E-score: -0.0318
Value for AAAGCATA under PBM E-score: -0.0199
Value for AACAATCA under PBM E-score: 0.219

Following part

Row | Sequence | PBM E-score
101 | ACCCGCGC | 0.256
102 | CGACCTAC | -0.126
103 | CCAAACTC | 0.0916
104 | AACGCTCG | 0.132
105 | CCGTACAG | -0.0293
106 | AAAATCGC | 0.12
107 | CGGGGAAC | 0.0676
108 | GGCCTACA | 0.0721
109 | GCCCACCC | 0.119
110 | CTGGGGTA | -0.12
111 | CTGTTCGC | 0.13
112 | GTTACTAA | 0.374
113 | ATGGCCAT | 0.252
114 | AATCGCCT | 0.106
115 | ATACCGTA | -0.0149
116 | CTTAGATA | 0.169
117 | GGGTCTAA | -0.0221
118 | GTCGGGTA | 0.0141
119 | AAGGGCTA | -0.121
120 | CGAGGATC | 0.174
121 | GGGTGACC | -0.0743
122 | CCTGGGAG | -0.196
123 | GCGATGCA | -0.252
124 | GAAGATCA | 0.00058
125 | AACGTTAC | 0.196

Row | Sequence | PBM E-score
126 | AACTATAC | -0.0398
127 | GAGAGCCA | -0.228
128 | CCGGGTTC | -0.0103
129 | TATCCGAA | 0.139
130 | CCAGGCTC | -0.0443
131 | GCCAGGTA | 0.00087
132 | AAGATCAC | 0.0436
133 | CGAACAGA | 0.0274
134 | ACCGACAT | 0.0684
135 | GTCGCGAA | 0.0594
136 | ACCAAACC | 0.00963
137 | CCGGCAAG | -0.0274
138 | GTCTATGA | 0.142
139 | AAATATTG | 0.249
140 | AATGATTA | 0.249
141 | AAGGATCC | -0.073
142 | CGTCTCGA | 0.0733
143 | GGCGACAC | 0.0142
144 | CACCGTTA | 0.0887
145 | AGGCTAAA | -0.0341
146 | AAGGATGT | -0.11
147 | GGCGGGTA | -0.0629
148 | AGTTCATC | 0.0446
149 | CAAAACAA | -0.00589
150 | AGGCGCTA | 0.146

Row | Sequence | PBM E-score
151 | CCGCCCAC | -0.0884
152 | CTTGCACC | -0.0284
153 | ACGCACAG | 0.0754
154 | CACTCATG | -0.0327
155 | GACATTCC | -0.0262
156 | AATCGCAG | 0.111
157 | AATATCGG | 0.183
158 | GTTGCCAA | 0.0425
159 | CGGTCTGA | 0.00188
160 | AAGCAGCA | -0.13
161 | ATTCTGGA | 0.0362
162 | CGAGGAAC | 0.146
163 | AGAAATGC | 0.0228
164 | ACTATTAA | 0.123
165 | ACGCGATA | 0.156
166 | CAGTTGGC | 0.00206
167 | GGCCATTA | 0.139
168 | CGTGTACC | -0.135
169 | CACATACG | -0.113
170 | AATGGAGT | -0.0299
171 | ACCTAGCT | -0.111
172 | ATGTCCTG | 0.158
173 | AAAATCAT | 0.0969
174 | GACCACCA | -0.0541
175 | ATTGGATG | -0.0526

Row | Sequence | PBM E-score
176 | AGGTCTTC | -0.211
177 | GATCTTTA | -0.013
178 | AAACCCGG | 0.0562
179 | GTGCCCCA | -0.152
180 | AATTTCTA | 0.184
181 | CAGATAAA | 0.0231
182 | GGGCGATA | -0.196
183 | TCAGACAA | 0.13
184 | AACTGGCA | 0.0196
185 | CCGCATGC | 0.0682
186 | CCCAGCAG | -0.0553
187 | CGGTACCC | -0.205
188 | AACAATGG | 0.0149
189 | GCGAATAC | -0.028
190 | AACTCAAT | 0.0311
191 | CCAGGCCA | -0.0845
192 | AATGTTCG | 0.117
193 | TAGACAAA | -0.0741
194 | CTGCATAC | 0.0671
195 | ATACTTTA | 0.0976
196 | ATCTCTAG | -0.0232
197 | CCGTCCCC | -0.263
198 | AAACGACT | -0.0235
199 | CTATCATA | 0.148
200 | CTGTTCAA | -0.00531

Row | Sequence | PBM E-score
201 | CACGCTTC | -0.213
202 | CCCATTTC | -0.289
203 | GTGCGCTA | 0.0718
204 | AAATAGCT | -0.0849
205 | CAAAGGCA | 0.0792
206 | TCGTCCAA | 0.0812
207 | ATGGGAAT | -0.109
208 | GCATGCCA | -0.0155
209 | CAGCATCA | 0.11
210 | GCCATTTA | -0.165
211 | TATTTTGA | 0.15
212 | ACTATACT | 0.131
213 | TTCCCCAA | -0.0816
214 | CAAGTTAA | 0.0668
215 | ATACGGTG | 0.0409
216 | AACTACCT | 0.0789
217 | GCGCAACA | 0.0472
218 | CCGGTAAC | 0.0491
219 | ACGACGTA | 0.0903
